Experimental data as given in doi:10.1101/2024.01.31.578225.
No constants are given. Whether binding was seen depends on the method and setting. Binding can be weak; no strength is given. Tags and fused reporters may be left off the sequences shown.

By UniProt entry, the sequences of proteins in these tests, tags left out. Where a name states a change or a piece, a line headed by the entry shows the natural chain unless it says otherwise.
UniProt A0A3Q7I824: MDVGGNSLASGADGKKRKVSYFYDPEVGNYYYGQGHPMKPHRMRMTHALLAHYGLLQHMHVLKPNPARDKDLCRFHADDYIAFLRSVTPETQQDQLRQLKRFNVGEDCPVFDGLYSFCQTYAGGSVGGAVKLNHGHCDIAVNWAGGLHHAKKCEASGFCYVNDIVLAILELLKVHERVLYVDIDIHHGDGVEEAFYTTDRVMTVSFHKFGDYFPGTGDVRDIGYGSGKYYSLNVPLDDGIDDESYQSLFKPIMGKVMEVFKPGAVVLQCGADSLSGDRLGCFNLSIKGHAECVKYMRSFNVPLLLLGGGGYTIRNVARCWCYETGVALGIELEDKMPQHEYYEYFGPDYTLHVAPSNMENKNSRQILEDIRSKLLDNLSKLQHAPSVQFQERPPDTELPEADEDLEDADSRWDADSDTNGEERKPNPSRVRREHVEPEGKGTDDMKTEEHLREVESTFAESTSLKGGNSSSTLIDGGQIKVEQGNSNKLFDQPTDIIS
UniProt A0A3Q7GY95: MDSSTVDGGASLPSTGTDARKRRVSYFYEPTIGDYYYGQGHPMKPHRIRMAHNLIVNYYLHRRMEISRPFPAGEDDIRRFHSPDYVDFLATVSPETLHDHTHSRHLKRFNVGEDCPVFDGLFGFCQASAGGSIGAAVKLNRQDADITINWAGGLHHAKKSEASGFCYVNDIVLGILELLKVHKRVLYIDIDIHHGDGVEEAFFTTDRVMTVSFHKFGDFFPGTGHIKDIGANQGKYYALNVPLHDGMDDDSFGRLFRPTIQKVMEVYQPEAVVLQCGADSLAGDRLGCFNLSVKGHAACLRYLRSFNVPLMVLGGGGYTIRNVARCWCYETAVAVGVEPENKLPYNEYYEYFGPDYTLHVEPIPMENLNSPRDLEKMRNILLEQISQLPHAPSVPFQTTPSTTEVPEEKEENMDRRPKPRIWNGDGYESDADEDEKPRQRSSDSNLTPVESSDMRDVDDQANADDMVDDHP

What was measured:
[1] = molecular target: T1, BD-SlWRKY80(68-273) (tomato (Solanum lycopersicum)) (UniProt K4BIZ9); assay: two-hybrid
T1 sequence: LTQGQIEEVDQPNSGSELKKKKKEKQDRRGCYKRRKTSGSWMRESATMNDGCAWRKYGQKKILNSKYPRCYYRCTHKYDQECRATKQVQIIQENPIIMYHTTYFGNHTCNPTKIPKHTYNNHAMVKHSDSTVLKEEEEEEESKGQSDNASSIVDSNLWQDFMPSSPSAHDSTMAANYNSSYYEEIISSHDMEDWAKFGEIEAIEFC

[2] = molecular target: T2, GST-SlWRKY80 fusion protein (tomato (Solanum lycopersicum)) (UniProt K4BIZ9); assay: pull-down
T2 sequence: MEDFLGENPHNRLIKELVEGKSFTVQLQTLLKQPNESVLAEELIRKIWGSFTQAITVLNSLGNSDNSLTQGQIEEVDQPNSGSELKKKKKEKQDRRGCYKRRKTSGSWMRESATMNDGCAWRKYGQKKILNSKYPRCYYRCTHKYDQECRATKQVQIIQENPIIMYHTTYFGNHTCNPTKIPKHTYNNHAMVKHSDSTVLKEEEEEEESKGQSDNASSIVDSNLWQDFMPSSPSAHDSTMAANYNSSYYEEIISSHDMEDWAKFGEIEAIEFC

Substance | binding [1] | binding [2]
SlHDA1 (pGADT7 fusion) (tomato (Solanum lycopersicum)) | binds | –
MBP-SlHDA1 fusion protein (from UniProt A0A3Q7I824) | – | binds
SlHDA9 (pGADT7 fusion) (from UniProt A0A3Q7GGL3) | binds | –
SlHDA3 (pGADT7 fusion) (from UniProt A0A3Q7GY95) | binds | –
